# The list shows a part of the results. Shown are side measurements of this screen, not its main read-out; they come without a call. The list favours compounds with an active or inconclusive main result. The note in brackets gives the kind of curve behind each potency; many fits are weak.
# Test: qHTS Assay for Lipid Storage Modulators in Drosophila S3 Cells;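 on cell number change: cells counted by Cell Tracker Red CMTPX staining in the red channel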
# Conditions: BODIPY lipid droplet fluorescence, 18-24 h; for cell number change: measured here: cell count max response, cells fed with added oleic acid
# Summary of the method: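 Drosophila S3 cells got compounds at several concentrations plus oleic acid (400 uM solution). Laser-scanning cytometry with 488 nm excitation read lipid droplets at 500-530 nm and cells at 575-640 nm. Percent activity was relative to 20 uM Triacsin C.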
# [1] = measured here: cell number channel AC50, cells fed with added oleic acid
# [2] = measured here: lipid fluorescence (Fed channel) AC50, cells fed with added oleic acid
SMILES,cell number change,AC50 [1],AC50 [2]
Fc1ccccc1-c1n[nH]c(=S)n1Cc1ccccc1,10.5%,,
CCCCC(=O)Nc1ccc(C(=O)Nc2nnc(COC)s2)cc1,39.5%,"29100 nM [rising, single point]",
C/C(=N/OC(=O)C1CC12CCC2)c1ccc(Br)cc1 (stereo not given),,"1640 nM [rising, partial curve, poor fit]",
Cc1ccc(/C=C2\SC(=S)N(CCCC(=O)Nc3cccc(C(=O)O)c3)C2=O)cc1,11.9%,,"18400 nM [rising, single point]"
Cc1cccc(-c2cc3nc(C)c(C)c(NCCCn4ccnc4)n3n2)c1,-4.38%,,
COc1cc(OC)c(C2=NOC(C(=O)Nc3c(C)n(C)n(-c4ccccc4)c3=O)C2)cc1Cl (stereo not given),32.7%,"1030 nM [rising, partial curve, poor fit]","3260 nM [rising, partial curve]"
CC1CCC2(CC1)NC(=O)c1ccccc1O2 (stereo not given),2.08%,,
CC(C)C(=O)Nc1ccc(C(=O)NNC(=S)NC(=O)c2cccs2)cc1,-41.5%,"164 nM [falling, full curve, poor fit]","231 nM [falling, full curve]"
CC(=O)c1cccc(NS(=O)(=O)c2ccc(N/C=C\C(=O)c3ccc(C)cc3)cc2)c1,-32.7%,"2310 nM [falling, full curve]","4610 nM [falling, full curve]"
COC(=O)C1CCCCN1C(=O)c1cccc(OC2CCN(C(=O)C3CC3)CC2)c1 (stereo not given),-30.7%,,"411 nM [falling, full curve]"
CCC(=O)Nc1ccc(NC(=O)CSc2nnnn2-c2cccnc2)cc1C,-3.44%,,"4110 nM [rising, full curve, poor fit]"
CCCCn1c(N)c(N(CCOC)C(=O)c2sc3cc(F)ccc3c2Cl)c(=O)[nH]c1=O,19.3%,,
C=CCN(C(=O)c1csnn1)C(C(=O)NC1CCCCC1)c1ccc(C)cc1 (stereo not given),24.3%,,"580 nM [rising, single point]"
O=C(COc1ccc(Cl)cc1Cl)N1CCNC1=O,12.7%,,"1640 nM [rising, partial curve, poor fit]"
CCn1c(SCC(=O)N2CCCC(C)C2)nnc1-c1ccc(S(=O)(=O)N2CCN(C)CC2)cc1 (stereo not given),12%,,
CCN1CCN(c2ccc(S(=O)(=O)N3CCCCC3)cc2NC(=O)C(C)Oc2ccc(F)cc2)CC1 (stereo not given),,"3660 nM [rising, single point]",
COc1ccccc1-c1nnc(SCC(=O)NC2CCS(=O)(=O)C2)n1N (stereo not given),-19.4%,,"5.17 nM [falling, full curve, poor fit]"

# Entries of single compounds, quoted from the list.
# CCCCC(=O)Nc1ccc(C(=O)Nc2nnc(COC)s2)cc1 is listed with cell number change: 39.5%; AC50 [1]: 29100 nM [rising, single point]
# CCn1c(SCC(=O)N2CCCC(C)C2)nnc1-c1ccc(S(=O)(=O)N2CCN(C)CC2)cc1 (stereo not given) is listed with cell number change: 12%
